Results are given in words; binding and its absence hold for the method and conditions named. Some entries that bind do so weakly or less than the wild type.
Assays:
[1] = biological target: T1, AITR on AITR-overexpressed Jurkat cells (pcDNA3.1(+)/CD5L-AITR-TM-ECD) (human) (UniProt Q9Y5U5); experiment: flow cytometry on AITR-overexpressed Jurkat cells (FIG. 1B)
T1 sequence (looked up): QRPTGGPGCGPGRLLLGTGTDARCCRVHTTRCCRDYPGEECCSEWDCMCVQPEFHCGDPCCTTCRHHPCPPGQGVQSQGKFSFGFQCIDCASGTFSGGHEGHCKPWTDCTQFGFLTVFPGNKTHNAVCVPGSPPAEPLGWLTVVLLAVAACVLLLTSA

[2] = biological target: T1, AITR on AITR-overexpressed Jurkat cells (pcDNA3.1(+)/CD5L-AITR-TM-ECD) (human); experiment: flow cytometry, PE-conjugated antibody on AITR-overexpressed Jurkat cells (FIG. 1B)
[3] = biological target: activation-inducible tumor necrosis factor receptor (AITR), endogenous on human T cells (human) (UniProt Q9Y5U5); experiment: flow cytometry on anti-CD3/IL-2-activated human CD4+ T cells

Measured: binding

B1: anti-AITR monoclonal antibody B62 (antibody, V domains shown)
VH: EVQLVQSGGGLVQPGGSLRLSCSASGFSFSSYAMHWVRQAPGKGLEYVSGISDNGGSTKYADSVKGRFTISRDNSQNTLYLQMSSLRSEDTAVYYCARGGPTYYDFWSGYYTDEDAFDIWGQGTLVTVSS
VL: EIVMTQSPSSLSASVGDRVTITCRASQSINNYLNWYQQKPGKAPKLLIYATSRLQSGVPSRFSGSGSGADLTLTISSLQPEDVATYYCQQSYSFPWTFGQGTKVEIK
binds: [1] | [2] | [3]

— US20180362612A1
